Data from patent US20070020687A1.
No constants are given. Whether binding was seen depends on the method and setting. Some entries that bind do so weakly or less than the wild type.

Amino acid sequences for entries named in this document (tags omitted). A change or cut given only in a name is not applied to a line headed by its entry. Chains listed by the source or under a name are the forms on record and can include a tag or linker.
UniProt P61586: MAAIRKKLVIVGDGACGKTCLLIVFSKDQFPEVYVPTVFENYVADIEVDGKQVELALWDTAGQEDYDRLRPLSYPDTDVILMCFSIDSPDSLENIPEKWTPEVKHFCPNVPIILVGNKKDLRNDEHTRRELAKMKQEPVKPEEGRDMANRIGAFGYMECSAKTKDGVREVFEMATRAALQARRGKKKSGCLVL
ROCK1 effector-GBD peptide, histidine tagged, with engineered carboxy terminal cysteine (Q13464, form named): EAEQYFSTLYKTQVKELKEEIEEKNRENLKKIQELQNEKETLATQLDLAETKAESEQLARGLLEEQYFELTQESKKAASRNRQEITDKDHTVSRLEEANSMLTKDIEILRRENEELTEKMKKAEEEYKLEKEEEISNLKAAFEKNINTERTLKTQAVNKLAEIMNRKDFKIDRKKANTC

Columns and labels:
[1] = molecular target: constitutively active recombinant RhoA, glutamine 63 to leucine, histidine tagged (Homo sapiens (Human)) (UniProt P61586); assay: G-LISA on maleimide plates (FIG. 2)
[2] = molecular target: active RhoA, sample not stated (Homo sapiens (Human)) (UniProt P61586); assay: G-LISA with TCA Antigen Presenting Buffer
[3] = molecular target: constitutively active recombinant RhoA, glutamine 63 to leucine, histidine tagged (Homo sapiens (Human)) (UniProt P61586); assay: RhoA G-LISA, ROCK1-GBD on maleimide plate, luminometry

binding [1]: binds
binding [2]: binds
binding [3]: binds
Substance: ROCK1 effector-GBD peptide, histidine tagged, with engineered carboxy terminal cysteine (from UniProt Q13464 847-1024)
